Patent US20190389961A1
Results are given in words; binding and its absence hold for the method and conditions named. Some entries that bind do so weakly or less than the wild type.

Assays:
Experiment in all cases: flow cytometry, Hek-293T cells expressing the mutant
[1] = target: T1, human CD39 mutant 17 (human) (UniProt P49961)
T1 sequence: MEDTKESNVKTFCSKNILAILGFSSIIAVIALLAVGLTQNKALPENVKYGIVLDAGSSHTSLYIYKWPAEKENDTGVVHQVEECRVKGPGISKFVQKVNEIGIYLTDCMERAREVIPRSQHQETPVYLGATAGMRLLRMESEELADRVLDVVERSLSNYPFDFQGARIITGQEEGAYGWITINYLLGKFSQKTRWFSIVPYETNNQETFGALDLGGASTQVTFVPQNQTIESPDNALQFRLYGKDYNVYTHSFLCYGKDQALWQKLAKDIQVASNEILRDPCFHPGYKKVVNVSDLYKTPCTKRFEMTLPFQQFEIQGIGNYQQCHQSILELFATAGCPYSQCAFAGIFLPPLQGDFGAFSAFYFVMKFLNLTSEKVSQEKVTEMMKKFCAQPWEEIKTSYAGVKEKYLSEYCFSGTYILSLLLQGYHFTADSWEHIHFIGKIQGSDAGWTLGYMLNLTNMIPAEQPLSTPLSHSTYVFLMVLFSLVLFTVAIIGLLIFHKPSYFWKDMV

[2] = target: T2, human CD39 mutant 2A (human) (UniProt P49961)
T2 sequence: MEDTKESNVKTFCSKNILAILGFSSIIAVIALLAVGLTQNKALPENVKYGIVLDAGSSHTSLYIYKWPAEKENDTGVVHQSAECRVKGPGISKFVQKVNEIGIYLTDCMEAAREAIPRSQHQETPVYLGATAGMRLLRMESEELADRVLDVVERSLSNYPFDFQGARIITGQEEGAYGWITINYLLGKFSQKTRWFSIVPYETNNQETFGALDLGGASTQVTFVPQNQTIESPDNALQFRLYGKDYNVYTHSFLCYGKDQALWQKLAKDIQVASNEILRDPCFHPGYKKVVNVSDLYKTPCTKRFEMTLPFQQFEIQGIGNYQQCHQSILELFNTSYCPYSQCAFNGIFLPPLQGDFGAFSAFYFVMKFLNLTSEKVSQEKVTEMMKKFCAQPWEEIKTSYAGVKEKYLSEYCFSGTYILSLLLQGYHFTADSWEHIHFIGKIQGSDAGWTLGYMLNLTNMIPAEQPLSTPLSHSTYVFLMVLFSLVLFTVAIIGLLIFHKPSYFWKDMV

[3] = target: T3, human CD39 mutant 2B (human) (UniProt P49961)
T3 sequence: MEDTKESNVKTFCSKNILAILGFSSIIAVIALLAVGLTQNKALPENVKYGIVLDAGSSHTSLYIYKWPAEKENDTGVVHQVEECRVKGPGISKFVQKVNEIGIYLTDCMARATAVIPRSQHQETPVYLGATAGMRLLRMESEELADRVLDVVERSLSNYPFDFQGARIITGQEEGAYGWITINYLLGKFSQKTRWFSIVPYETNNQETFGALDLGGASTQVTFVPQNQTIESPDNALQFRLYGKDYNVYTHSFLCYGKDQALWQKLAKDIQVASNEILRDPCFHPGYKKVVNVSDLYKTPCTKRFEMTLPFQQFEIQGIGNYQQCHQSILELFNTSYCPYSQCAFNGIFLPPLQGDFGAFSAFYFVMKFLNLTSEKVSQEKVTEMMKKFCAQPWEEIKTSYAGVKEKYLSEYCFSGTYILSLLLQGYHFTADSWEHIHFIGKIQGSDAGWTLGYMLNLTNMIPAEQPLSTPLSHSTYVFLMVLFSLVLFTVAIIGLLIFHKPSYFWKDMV

[4] = target: T4, human CD39 mutant 12 (human) (UniProt P49961)
T4 sequence: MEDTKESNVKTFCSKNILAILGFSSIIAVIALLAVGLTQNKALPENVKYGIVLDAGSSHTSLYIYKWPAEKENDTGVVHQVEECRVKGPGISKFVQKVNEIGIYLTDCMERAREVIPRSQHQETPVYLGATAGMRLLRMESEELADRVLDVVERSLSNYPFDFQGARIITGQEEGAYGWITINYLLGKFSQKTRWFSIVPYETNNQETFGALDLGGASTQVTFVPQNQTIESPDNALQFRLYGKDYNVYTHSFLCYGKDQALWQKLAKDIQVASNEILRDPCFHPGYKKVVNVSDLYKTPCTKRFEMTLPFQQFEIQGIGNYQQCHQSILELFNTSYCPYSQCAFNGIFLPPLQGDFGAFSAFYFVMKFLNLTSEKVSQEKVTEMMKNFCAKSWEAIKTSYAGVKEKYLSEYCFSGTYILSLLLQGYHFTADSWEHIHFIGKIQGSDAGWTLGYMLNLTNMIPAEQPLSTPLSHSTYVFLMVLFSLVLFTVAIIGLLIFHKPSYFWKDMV

[5] = target: T5, human CD39 mutant 18 (human) (UniProt P49961)
T5 sequence: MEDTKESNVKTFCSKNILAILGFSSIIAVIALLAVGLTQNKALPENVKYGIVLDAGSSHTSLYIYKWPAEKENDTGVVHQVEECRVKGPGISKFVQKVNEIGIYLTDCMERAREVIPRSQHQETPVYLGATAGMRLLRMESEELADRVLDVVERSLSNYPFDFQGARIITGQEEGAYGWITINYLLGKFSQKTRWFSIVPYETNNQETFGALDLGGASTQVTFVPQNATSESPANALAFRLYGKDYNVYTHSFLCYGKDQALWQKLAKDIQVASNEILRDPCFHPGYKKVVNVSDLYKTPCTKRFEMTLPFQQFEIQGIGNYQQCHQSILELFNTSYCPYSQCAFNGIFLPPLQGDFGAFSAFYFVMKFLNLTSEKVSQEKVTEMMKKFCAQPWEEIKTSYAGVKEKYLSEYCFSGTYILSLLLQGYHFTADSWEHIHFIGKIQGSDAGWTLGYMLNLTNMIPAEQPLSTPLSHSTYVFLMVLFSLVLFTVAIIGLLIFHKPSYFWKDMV

binding [1]: binds | binding [2]: binds | binding [3]: binds | binding [4]: binds | binding [5]: binds
B1: antibody I-399 (antibody, V domains shown)
VH: PVQLQQPGAEVVMPGASVKLSCKASGYTFTSFWMNWMRQRPGQGLEWIGEIDPSDFYTNSNQRFKGKATLTVDKSSSTAYMQLSSLTSEDSAVYFCARGDFGWYFDVWGTGTSVTVSS
VL: EIVLTQSPTTMTSSPGEKITFTCSASSSINSNYLHWYQQKPGFSPKLLIYRTSNLASGVPTRFSGSGSGTSYSLTIGTMEAEDVATYYCQQGSSLPRTFGGGTKLEIK
